These are yes or no findings as the source states them, for the method shown.
Assays:
[1] = target: T1, CCL19_HUMAN (human), Q99731; test: BLI, empty cell the 12th table, row 85, column 4; conditions: remark: other sources report otherwise
T1 chain: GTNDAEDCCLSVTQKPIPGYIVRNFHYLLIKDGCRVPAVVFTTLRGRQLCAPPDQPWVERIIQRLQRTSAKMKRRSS

Sequences of proteins named here, by UniProt entry; tags and fusion partners are left off. Residues count along the entry.
UniProt P19875, residues 35-107: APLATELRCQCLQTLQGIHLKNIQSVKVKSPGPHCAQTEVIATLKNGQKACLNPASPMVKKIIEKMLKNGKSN
UniProt O43927, residues 23-109: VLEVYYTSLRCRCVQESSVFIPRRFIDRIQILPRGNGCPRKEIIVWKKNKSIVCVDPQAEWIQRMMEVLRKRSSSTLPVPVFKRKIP
UniProt Q07325, residues 23-125: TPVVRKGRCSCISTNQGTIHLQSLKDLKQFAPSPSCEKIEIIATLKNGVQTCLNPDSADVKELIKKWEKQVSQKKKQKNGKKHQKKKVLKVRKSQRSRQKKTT
UniProt P42830, residues 41-114: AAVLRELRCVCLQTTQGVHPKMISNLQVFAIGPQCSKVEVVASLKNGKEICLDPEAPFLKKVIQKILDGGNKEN
UniProt P55773, residues 22-120: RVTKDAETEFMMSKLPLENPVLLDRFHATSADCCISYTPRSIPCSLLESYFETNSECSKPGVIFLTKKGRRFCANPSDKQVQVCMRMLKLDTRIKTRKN
UniProt P09341, residues 35-107: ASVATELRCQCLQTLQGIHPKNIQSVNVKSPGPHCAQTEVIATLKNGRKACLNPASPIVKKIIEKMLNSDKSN
UniProt O95715, residues 35-111: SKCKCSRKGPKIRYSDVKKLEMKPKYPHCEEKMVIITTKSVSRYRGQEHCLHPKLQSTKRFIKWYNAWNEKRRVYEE
UniProt O14625, residues 22-94: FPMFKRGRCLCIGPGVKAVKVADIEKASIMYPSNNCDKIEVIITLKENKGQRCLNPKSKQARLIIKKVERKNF
UniProt P19876, residues 35-107: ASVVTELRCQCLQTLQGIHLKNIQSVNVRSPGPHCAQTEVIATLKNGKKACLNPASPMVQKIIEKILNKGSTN
UniProt Q9Y4X3, residues 25-112: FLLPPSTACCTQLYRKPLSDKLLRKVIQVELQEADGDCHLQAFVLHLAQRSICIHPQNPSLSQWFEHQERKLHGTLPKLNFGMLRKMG
UniProt O00585, residues 24-134: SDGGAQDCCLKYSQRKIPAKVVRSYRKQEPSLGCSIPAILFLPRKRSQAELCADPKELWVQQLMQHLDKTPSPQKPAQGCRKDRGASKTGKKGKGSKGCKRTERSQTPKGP
UniProt O00175, residues 27-104: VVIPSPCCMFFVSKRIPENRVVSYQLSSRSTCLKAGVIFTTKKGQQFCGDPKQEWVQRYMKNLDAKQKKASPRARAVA
UniProt Q9NRJ3, residues 23-127: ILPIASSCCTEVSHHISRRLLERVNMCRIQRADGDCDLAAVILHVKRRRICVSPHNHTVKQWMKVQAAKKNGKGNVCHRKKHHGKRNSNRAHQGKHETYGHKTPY
UniProt P80162, residues 38-114: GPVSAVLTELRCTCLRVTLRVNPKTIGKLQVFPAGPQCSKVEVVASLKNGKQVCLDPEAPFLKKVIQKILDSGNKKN
UniProt P02775, residues 59-128: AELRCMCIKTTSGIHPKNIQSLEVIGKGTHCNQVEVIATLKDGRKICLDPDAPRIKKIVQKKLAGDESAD
UniProt P02776, residues 32-101: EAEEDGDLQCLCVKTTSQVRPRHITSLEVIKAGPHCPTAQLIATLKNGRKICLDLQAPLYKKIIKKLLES
UniProt P02778, residues 22-98: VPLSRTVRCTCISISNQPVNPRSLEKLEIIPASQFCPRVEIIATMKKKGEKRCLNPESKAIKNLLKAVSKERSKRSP
UniProt P48061, residues 22-89: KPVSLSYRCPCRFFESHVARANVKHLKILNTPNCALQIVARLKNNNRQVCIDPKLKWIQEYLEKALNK
UniProt P10145, residues 28-99: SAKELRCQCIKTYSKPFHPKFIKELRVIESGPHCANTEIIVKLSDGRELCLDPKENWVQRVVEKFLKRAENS
UniProt P78556, residues 27-96: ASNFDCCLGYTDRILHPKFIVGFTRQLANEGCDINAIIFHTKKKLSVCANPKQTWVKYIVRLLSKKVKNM

[2] = target: T2, CX3CL1_HUMAN (human), P78423; test: BLI, empty cell the 12th table, row 95, column 4; conditions: remark: other sources report otherwise
T2 chain: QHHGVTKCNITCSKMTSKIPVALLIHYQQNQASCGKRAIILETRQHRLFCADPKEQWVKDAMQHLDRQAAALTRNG

[3] = target: T3, CCL5_HUMAN (human), P13501; test: BLI, empty cell the 12th table, row 75, column 4; conditions: remark: other sources report otherwise
T3 chain: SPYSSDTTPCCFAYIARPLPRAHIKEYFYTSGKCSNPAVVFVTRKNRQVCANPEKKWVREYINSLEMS

[4] = target: CXCL2_HUMAN (human) (UniProt P19875); test: BLI, empty cell the 12th table, row 97, column 4
[5] = target: CXCL13_HUMAN (human) (UniProt O43927); test: BLI, empty cell the 12th table, row 108, column 4
[6] = target: CXCL9_HUMAN (human) (UniProt Q07325); test: BLI, empty cell the 12th table, row 104, column 4
[7] = target: CXCL5_HUMAN (human) (UniProt P42830); test: BLI, empty cell the 12th table, row 100, column 4
[8] = target: CCL23_HUMAN (human) (UniProt P55773); test: BLI, empty cell the 12th table, row 89, column 4
[9] = target: CXCL1_HUMAN (human) (UniProt P09341); test: BLI, empty cell the 12th table, row 96, column 4
[10] = target: CXCL14_HUMAN (human) (UniProt O95715); test: BLI, empty cell the 12th table, row 109, column 4
[11] = target: CXCL11_HUMAN (human) (UniProt O14625); test: BLI, empty cell the 12th table, row 106, column 4
[12] = target: CXCL3_HUMAN (human) (UniProt P19876); test: BLI, empty cell the 12th table, row 98, column 4
[13] = target: CCL15_HUMAN (human) (UniProt Q16663); test: BLI, empty cell the 12th table, row 81, column 4
[14] = target: CCL27_HUMAN (human) (UniProt Q9Y4X3); test: BLI, empty cell the 12th table, row 93, column 4
[15] = target: CCL21_HUMAN (human) (UniProt O00585); test: BLI, empty cell the 12th table, row 87, column 4
[16] = target: CCL24_HUMAN (human) (UniProt O00175); test: BLI, empty cell the 12th table, row 90, column 4
[17] = target: CCL28_HUMAN (human) (UniProt Q9NRJ3); test: BLI, empty cell the 12th table, row 94, column 4
[18] = target: CXCL6_HUMAN (human) (UniProt P80162); test: BLI, empty cell the 12th table, row 101, column 4
[19] = target: T4, XCL1_HUMAN (human) (UniProt P47992); test: BLI, empty cell the 12th table, row 113, column 4
T4 sequence: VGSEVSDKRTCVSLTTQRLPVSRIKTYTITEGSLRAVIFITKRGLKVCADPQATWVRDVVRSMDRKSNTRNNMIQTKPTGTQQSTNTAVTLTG

[20] = target: CXCL7_HUMAN (human) (UniProt P02775); test: BLI, empty cell the 12th table, row 102, column 4
[21] = target: CXCL4_HUMAN (human) (UniProt P02776); test: BLI, empty cell the 12th table, row 99, column 4
[22] = target: T4, XCL1_HUMAN (human); test: BLI, empty cell the 12th table, row 113, column 3
[23] = target: CXCL7_HUMAN (human) (UniProt P02775); test: BLI, empty cell the 12th table, row 102, column 3
[24] = target: CXCL5_HUMAN (human) (UniProt P42830); test: BLI, empty cell the 12th table, row 100, column 3
[25] = target: CXCL10_HUMAN (human) (UniProt P02778); test: BLI, empty cell the 12th table, row 105, column 3
[26] = target: CCL27_HUMAN (human) (UniProt Q9Y4X3); test: BLI, empty cell the 12th table, row 93, column 3
[27] = target: CXCL12_HUMAN (human) (UniProt P48061); test: BLI, empty cell the 12th table, row 107, column 3
[28] = target: CXCL1_HUMAN (human) (UniProt P09341); test: BLI, empty cell the 12th table, row 96, column 3
[29] = target: CCL19_HUMAN (human) (UniProt Q99731); test: BLI, empty cell the 12th table, row 85, column 3
[30] = target: CCL23_HUMAN (human) (UniProt P55773); test: BLI, empty cell the 12th table, row 89, column 3
[31] = target: CXCL9_HUMAN (human) (UniProt Q07325); test: BLI, empty cell the 12th table, row 104, column 3
[32] = target: CXCL4_HUMAN (human) (UniProt P02776); test: BLI, empty cell the 12th table, row 99, column 3
[33] = target: CXCL2_HUMAN (human) (UniProt P19875); test: BLI, empty cell the 12th table, row 97, column 3
[34] = target: CCL28_HUMAN (human) (UniProt Q9NRJ3); test: BLI, empty cell the 12th table, row 94, column 3
[35] = target: CCL21_HUMAN (human) (UniProt O00585); test: BLI, empty cell the 12th table, row 87, column 3
[36] = target: CXCL8_HUMAN (human) (UniProt P10145); test: BLI, empty cell the 12th table, row 103, column 3
[37] = target: CXCL11_HUMAN (human) (UniProt O14625); test: BLI, empty cell the 12th table, row 106, column 3
[38] = target: CCL24_HUMAN (human) (UniProt O00175); test: BLI, empty cell the 12th table, row 90, column 3
[39] = target: CXCL6_HUMAN (human) (UniProt P80162); test: BLI, empty cell the 12th table, row 101, column 3
[40] = target: CXCL13_HUMAN (human) (UniProt O43927); test: BLI, empty cell the 12th table, row 108, column 3
[41] = target: CX3CL1_HUMAN (human) (UniProt P78423); test: BLI, empty cell the 12th table, row 95, column 3
[42] = target: CXCL14_HUMAN (human) (UniProt O95715); test: BLI, empty cell the 12th table, row 109, column 3
[43] = target: CXCL3_HUMAN (human) (UniProt P19876); test: BLI, empty cell the 12th table, row 98, column 3
[44] = target: CCL20_HUMAN (human) (UniProt P78556); test: BLI, empty cell the 12th table, row 86, column 3
[45] = target: T5, CCL15_HUMAN (human), Q16663; test: BLI, empty cell the 12th table, row 81, column 3; conditions: remark: other sources report otherwise
T5 chain: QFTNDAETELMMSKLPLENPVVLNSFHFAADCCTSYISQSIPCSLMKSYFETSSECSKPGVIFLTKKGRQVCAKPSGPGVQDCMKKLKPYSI

Measured: binding

B1: P546_AMBCA, A0A023FBW7 22-118 (protein)
chain: ENTQQEEEDYDYGTDTCPFPVLANKTNKAKFVGCHQKCNGGDQKLTDGTACYVVERKVWDRMTPMLWYSCPLGECKNGVCEDLRKKEECRKGNGEEK
no binding (tested: 300 nM): [1] | [2] | [3]

B2: P546_AMBCA (protein)
chain: ENTQQEEEDYDYGTDTCPFPVLANKTNKAKFVGCHQKCNGGDQKLTDGTACYVVERKVWDRMTPMLWYSCPLGECKNGVCEDLRKKEECRKGNGEEK
no binding (tested: 300 nM): [4] | [5] | [6] | [7] | [8] | [9] | [10] | [11] | [12] | [13] | [14] | [15] | [16] | [17] | [18] | [19] | [20] | [21]

B3: P974_AMBCA (protein)
chain: ENTQQEEQDYDYGTDTCPFPVLANKTNKAKFVGCHQKCNGGDQKLTDGTACYVVERKVWDRMTPMLWYECPLGECKNGVCEDLRKKEDCRKGNGEEK
no binding (tested: 300 nM): [22] | [23] | [24] | [25] | [26] | [27] | [28] | [29] | [30] | [31] | [32] | [33] | [34] | [35] | [36] | [37] | [38] | [39] | [40] | [41] | [42] | [43] | [44]

B4: P974_AMBCA, A0A023FDY8 22-118 (protein)
chain: ENTQQEEQDYDYGTDTCPFPVLANKTNKAKFVGCHQKCNGGDQKLTDGTACYVVERKVWDRMTPMLWYECPLGECKNGVCEDLRKKEDCRKGNGEEK
no binding (tested: 300 nM): [45]
